# PubChem BioAssay AID2685 (National Center for Advancing Translational Sciences (NCATS), 2010)
# The whole screen tested about 320,000 compounds, of which about 2,100 (0.66%) were called active. This list was built around the results that the source calls inconclusive (neither active nor inactive); the mix of calls is not that of the screen. Calls follow the shape of the dose curve; as a rule, active = well fitted inhibition curve with a large enough effect in the signal ratio, with a control signal flat (not every such curve was filed as active); inconclusive = small, poorly fitted or top-dose-only effect, or effect the other way, or a change in a side signal; inactive = flat fitted curve, though single readings scatter; the % refers to the signal ratio. Where the call is inconclusive, the potency comes from a doubtful curve fit.
# Assay: qHTS Assay for Lipid Storage Modulators in Drosophila S3 Cells
# Conditions: BODIPY lipid droplet fluorescence, 18-24 h, cells fed with added oleic acid; lipid storage change, negative = inhibition: at 46.1 µM (top of the series) unless noted
# Procedure, shortened: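 Drosophila S3 cells loaded with oleic acid (400 uM, as added) and compounds at several concentrations; lipid droplets imaged by 488-nm laser-scanning cytometry, 500–530 nm intensity and object ratio to cell channel. Percent activity normalized to 20 uM Triacsin C.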
# % is scaled to controls: 0 for no effect and ±100 for the full control effect; potency is read from the fitted curve at half-maximal effect.
Structure (SMILES),"lipid storage change, negative = inhibition",Potency
CCC(=O)N1CCN(c2ccc(NC(=O)c3c(F)c(F)c(OC)c(F)c3F)cc2)CC1,inconclusive: -40.4%,–
O=C(NC1CCCCCCC1)c1cc(F)c(F)cc1Cl,inconclusive: 25%,–
CCN(CC)C(=O)CSC1=N/C(=C/c2ccco2)C(=O)N1c1ccc(OC)c(Cl)c1,inconclusive: -15.9%,–
NS(=O)(=O)c1cc(C(=O)NCCOc2ccccc2)c(Cl)cc1Cl,inconclusive: -5.3%,–
Cc1ccc(S(=O)(=O)Nc2ccc3nc(N)sc3c2)cc1,inactive,–
COc1ccc(C2C(C#N)=C(N)N(N(C)C)C3=C2C(=O)CC(C)(C)C3)cc1 (centres undefined),inconclusive: 249%,–
O=C(c1cccc(S(=O)(=O)NCc2ccccc2)c1)N1CCCC(C(F)(F)F)C1 (centres undefined),inconclusive: 39.3%,–
CC(=O)Nc1cccc(NS(=O)(=O)Cc2ccc(Cl)cc2)c1,inconclusive: 8.76%,–
CCN(c1ccc2c(c1)OCO2)S(=O)(=O)c1cc(Br)cc2c1N(C(=O)C1CC1)CC2,–,"inconclusive: 1160 nM [activator, partial curve]"
Cc1[nH]c(=O)[nH]c(=O)c1S(=O)(=O)N1CCC(C(=O)N2CCN(c3cccc(C(F)(F)F)c3)CC2)CC1,–,"inconclusive: 29100 nM [rising, single point]"
COc1cccc(N(CC(=O)Nc2cccc(N(C)S(C)(=O)=O)c2)S(C)(=O)=O)c1,inconclusive: 2.27%,–
CNC(=O)c1ccsc1NC(=O)C1CCN(S(=O)(=O)c2cccs2)CC1,inconclusive,–
CC(C)(C)C1CCC(=NNc2nc3ccccc3[nH]2)CC1 (centres undefined),–,"inconclusive: 366 nM [activator, full curve, poor fit]"
COc1cc(NS(=O)(=O)c2cc(C)ccc2OC)c(OC)cc1Cl,–,"inconclusive: 1300 nM [activator, full curve]"
N#Cc1nc(COc2ccc(Br)cc2)oc1N1CCCCCC1,inactive: 17.2% [at 9.22 µM],–
CC(=O)Oc1ccc2cc(-c3ccccc3)c(=O)oc2c1,–,"inconclusive: 130 nM [activator, partial curve]"
COc1ccc(C2(c3ccc(OC)cc3)NC(=O)N(CC(=O)NC3CCCC3)C2=O)cc1,inconclusive,–
CCCC(=O)Nc1ccc(N2CCCCC2)cc1,inconclusive: 24.8%,–
CCN(CC)S(=O)(=O)c1ccc2oc(C(=O)NCC3COc4ccccc4O3)c(C)c2c1 (centres undefined),–,active: 461 nM
Cn1cnnc1SCC(=O)NCCc1ccc(Cl)cc1Cl,inconclusive: 7.34%,–
CC(C)c1ccc(C2/C(=C(/O)c3ccc(F)cc3)C(=O)C(=O)N2CCCN2CCOCC2)cc1 (centres undefined),inconclusive: 26.8%,–
CC(/C=N/NC(=O)c1nnn(-c2nonc2N)c1CN(C)C)=C\c1ccco1,inactive,–
O=C(NCC1CCCN1S(=O)(=O)c1ccccc1)C(=O)NC1CC1 (centres undefined),inactive,–
C/C(N)=C(/C#N)C(=O)CN1CCCCC1,–,"inconclusive: 146 nM [falling, full curve]"
COc1ccc(C2C(C#N)=C(N)OC3=C2C(=O)CCC3)cc1OC (centres undefined),inconclusive: 3.92%,–

# A few values from above.
# Under lipid storage change, negative = inhibition, O=C(NCC1CCCN1S(=O)(=O)c1ccccc1)C(=O)NC1CC1 (centres undefined) has inactive
# Under lipid storage change, negative = inhibition, N#Cc1nc(COc2ccc(Br)cc2)oc1N1CCCCCC1 has inactive: 17.2% [at 9.22 µM]
# Under Potency, CC(=O)Oc1ccc2cc(-c3ccccc3)c(=O)oc2c1 has inconclusive: 130 nM [activator, partial curve]

# The list goes on.

Structure (SMILES),"lipid storage change, negative = inhibition",Potency
COc1ccc(-c2nc(CS(=O)CC(=O)NCc3ccc(C)cc3)c(C)o2)cc1OC (centres undefined),inconclusive: -6.62%,–
O=C1CCC(C(=O)N2CCSCC2)CN1CCc1cccc(F)c1 (centres undefined),inconclusive: 0.385%,–
O=S(=O)(c1ccc(F)cc1)N1CCC2(CC1)OCCN2S(=O)(=O)c1cccs1,–,"inconclusive: 5170 nM [falling, single point]"
Cn1c(N)c(C(=O)COC(=O)CCC(=O)c2ccc(F)cc2)c(=O)n(C)c1=O,inconclusive: 8.05%,–
CCN(CC)S(=O)(=O)c1ccc2c(c1)nc(CCC(=O)Nc1ccc3c(c1)OCO3)n2C,–,"inconclusive: 130 nM [activator, full curve]"
Cc1ccc(S(=O)(=O)N2CCN(C(=O)CSc3ncn[nH]3)CC2)c(C)c1,–,"inconclusive: 13000 nM [activator, partial curve, poor fit]"
CCCOc1ccc(N2C(=O)C3ON(c4ccccc4)C(CCC)C3C2=O)cc1 (centres undefined),–,active: 18400 nM
CCc1ccc(-c2nc(CN3CCC(C(=O)N4CCN(c5ccccn5)CC4)CC3)c(C)o2)cc1,–,"inconclusive: 29100 nM [cytotoxic, single point]"
COc1ccc2oc(C(=O)NN3C(C)CCCC3C)c(C)c2c1 (centres undefined),inconclusive: 53.3%,–
Cc1[nH]c2ccccc2c1C(=O)CN1CCCC(C)C1 (centres undefined),inconclusive: 13.2%,–
CN(C)c1ccc(NC(=O)c2sc(SCC(=O)Nc3nccs3)nc2N)cc1,–,"inconclusive: 1460 nM [activator, full curve]"
O=C(COc1ccc(NC(=O)c2ccccc2)cc1)c1ccccc1,inconclusive: -36.2%,–
C=CCNC(=O)NC(=O)COC(=O)COc1ccc(Br)cc1F,inconclusive: -40.6%,–
COC(=O)c1ccccc1N1CCS(=O)(=O)CC1,–,active: 16400 nM
Cc1ccc(N2CCN(CC3CC=CCC3)CC2)cc1 (centres undefined),–,"inconclusive: 29100 nM [falling, single point]"
Cc1cc(C)n(-c2ccc(C(=O)OCC(=O)Nc3cc(Cl)ccc3[N+](=O)[O-])cc2)n1,inconclusive: -48.5%,–
O=[N+]([O-])c1cc([N+](=O)[O-])c(Oc2cccnc2Br)cc1NN1CCCCC1,inconclusive: -30.4%,–
CCOc1nc(C)ccc1-c1noc(C)n1,inconclusive: 6.25%,–
O=C(/C=C/c1ccccc1)NC(=S)Nc1ncccn1,inconclusive: 19.4%,–
O=C(CNC(=O)c1ccc(F)cc1)N/N=C/c1cc(Br)ccc1OCc1ccccc1,inconclusive: -0.305%,–
CC1CCCCC1NC(=O)COn1nnc2ccc(Cl)cc21 (centres undefined),–,"inconclusive: 4.6 nM [falling, full curve, poor fit]"
O=C(CNCc1ccccc1)Nc1ccc(Oc2ccccc2)cc1,inconclusive: -25.4%,–
CCCc1nnc(NC(=O)c2ccc(N3C(=O)C4C5C=CC(C5)C4C3=O)cc2)s1 (centres undefined),inconclusive: -31.6%,–
COc1ccc(/C=C(\NC(=O)c2ccc(OC)cc2)C(=O)N2CCCCC2)cc1,inconclusive: 46.6%,–
